Publication PMC9217715
No constants are given. Whether binding was seen depends on the method and setting. In cells and extracts the contact can be indirect. Some entries that bind do so weakly or less than the wild type.

Chains of the proteins cited; added tags and fusions are not shown.
UniProt Q15796: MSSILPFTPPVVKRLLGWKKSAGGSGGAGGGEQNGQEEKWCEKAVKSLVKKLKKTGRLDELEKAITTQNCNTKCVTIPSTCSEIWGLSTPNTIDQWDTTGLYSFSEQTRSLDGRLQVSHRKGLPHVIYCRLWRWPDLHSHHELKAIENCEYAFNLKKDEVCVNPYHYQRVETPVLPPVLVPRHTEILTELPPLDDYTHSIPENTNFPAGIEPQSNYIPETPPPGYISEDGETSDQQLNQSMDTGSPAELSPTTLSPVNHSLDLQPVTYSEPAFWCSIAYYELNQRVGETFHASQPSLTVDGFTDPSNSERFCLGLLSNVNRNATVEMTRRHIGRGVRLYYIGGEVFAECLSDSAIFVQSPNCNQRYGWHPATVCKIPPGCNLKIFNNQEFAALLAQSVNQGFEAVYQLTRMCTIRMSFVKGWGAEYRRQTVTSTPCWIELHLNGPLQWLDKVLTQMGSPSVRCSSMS

Biological target: T1, TGFBR1 (human (endogenous in HCT-116 and HT-29)) (UniProt P36897)
T1 sequence: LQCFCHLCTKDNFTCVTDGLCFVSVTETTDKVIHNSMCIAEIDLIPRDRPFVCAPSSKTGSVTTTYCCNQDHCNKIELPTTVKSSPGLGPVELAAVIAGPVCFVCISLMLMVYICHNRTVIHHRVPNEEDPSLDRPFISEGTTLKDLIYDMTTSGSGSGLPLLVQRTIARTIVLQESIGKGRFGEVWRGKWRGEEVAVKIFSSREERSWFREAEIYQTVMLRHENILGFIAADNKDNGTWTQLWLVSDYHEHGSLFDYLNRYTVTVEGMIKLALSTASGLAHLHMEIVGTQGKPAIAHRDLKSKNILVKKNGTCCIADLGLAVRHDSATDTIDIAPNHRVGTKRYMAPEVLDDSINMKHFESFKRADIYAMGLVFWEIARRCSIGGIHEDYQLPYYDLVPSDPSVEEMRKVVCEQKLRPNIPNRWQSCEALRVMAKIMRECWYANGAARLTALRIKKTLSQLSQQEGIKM
Test: co-IP; lysates (pre-cooled RIPA buffer with phosphatase inhibitors) of HCT-116 and HT-29 cells with or without ALG10 knockdown; Protein A agarose beads; precipitating antibody not stated

## p-smad2 (from UniProt Q15796 1-467)
  binding: binds
